Reference: US20080051438A1, “Preventive/Therapeutic Compositions Useful for Treating Cardiovascular Diseases” (priority 2006, published 2008)
For at least one compound, name, drawing or mass did not settle the structure.

Legend:
[1] = cilnidipine, literature (Shiokoshi); cited from earlier work
hypertensive patients [2] = test: Special investigation of combined use of cilnidipine and ARB: changes in heart rate; assay type: in vivo, human
Experimental: (§1) A special investigation was conducted in various medical centers, compiled, and analyzed to evaluate the safety and availability of the combined use of cilnidipine and at least one angiotensin II receptor blocker.
(§2) The subjects of the investigation were hypertensive patients which were adapted to cilnidipine. Combined administration of cilnidipine and ARB was started for the treatment of hypertension in these patients.
(§3) A prospective continuous investigation method was conducted. Such a method is continuously conducted with the registered cases with the combined administration of cilnidipine (Atelec®) and ARB, until the number of cases reaches the contracted cases for each center.
(§4) Regarding the administration method of cilnidipine, 5 to 10 mg of cilnidipine was orally administered after breakfast once a day. Meanwhile, the amount may increase or decrease depending on patient's age, symptoms, or the like. […]
(§5) Table 7 and FIG. 2 show the number of cases for which the blood pressure was measured, and the changes in the measured values of systolic BP, diastolic BP, and heart rate were measured at the following time points: before starting the combined administration, 4 weeks, 8 weeks, and 12 weeks after starting the combined administration, and the last measurement, which was 222.43 days in average from the start of the combined administration, n=2919). […]

hypertensive patients [3] = test: Special investigation of combined use of cilnidipine and ARB: changes in systolic and diastolic blood pressure; assay type: in vivo, human; settings: ARB + other calcium channel blocker switched to ARB + cilnidipine, 684 cases; 12 weeks and later up to last measurement
Experimental: as §1, §2, §3
as §4, with “like. When the effect is insufficient, the amount can be increased to 20 mg once a day.” for “like.”
as §5, with “which was 222.43 days in average from the start of the combined” left out

COCCOC(=O)C1=C(C)NC(C)=C(C(=O)OC/C=C/c2ccccc2)C1c1cccc([N+](=O)[O-])c1 (racemic) [cilnidipine, 2-methoxyethyl-3-phenyl-2(E)-propenyl(±)-1,4-dihydro-2,6-dimethyl-4-(3-nitrophenyl)-3,5-pyridinedicarboxylate]
effect on heart rate [1]: does not increase the heart rate
change in heart rate versus before switching (FIG. 5) (hypertensive patients [2]; ARB + nifedipine switched to ARB + cilnidipine, and the whole switched cases): significant decrease
change in blood pressure versus before switching (FIG. 5) (hypertensive patients [3]): significantly decreased

CCOc1nc2cccc(C(=O)O)c2n1Cc1ccc(-c2ccccc2-c2nnn[nH]2)cc1 [candesartan]
change in heart rate versus before the combined use with cilnidipine (FIG. 4) (hypertensive patients [2]; named ARB alone, then cilnidipine added, 12 weeks and later up to last measurement, p<0.01): significantly decreased
